Source: patent publication US8933107B2, “Pesticide thiazolyloxy substituted phenylamidine derivatives” (Bayer Cropscience AG, priority 2005, dated 2015)
Some results were stated once for a whole list of compounds, not compound by compound.

Assays:
[1] = test system: Puccinia recondita f. Sp. tritici; test: In vivo preventive test on Puccinia recondita f. Sp. tritici (wheat brown rust); conditions: 1000 ppm of active ingredient, evaluated 10 days after inoculation
[2] = test system: Erysiphe graminis f. sp. hordei; test: In vivo preventive test on Erysiphe gramini (powdery mildew on barley); conditions: 1000 ppm of active ingredient, evaluated 7 days after inoculation
Alternaria solani = test: In vivo protective test on Alternaria solani (leaf spot of tomato); conditions: 500 ppm of active ingredient, evaluated 7 days after inoculation
Podosphaera leucotricha = test: In vivo protective test on Podosphaera leucotricha (apples); conditions: 100 ppm of active ingredient, evaluated 10 days after inoculation
Sphaerotheca fuliginea = test: In vivo protective test on Sphaerotheca fuliginea (cucumbers); conditions: 100 ppm of active ingredient, evaluated 7 days after inoculation
Uromyces appendiculatus = test: In vivo protective test on Uromyces appendiculatus (beans); conditions: 100 ppm of active ingredient, evaluated 10 days after inoculation

Structure (SMILES)	efficacy (Alternaria solani) [%]	efficacy (Uromyces appendiculatus) [%]	also measured
CCN(C)/C=N/c1cc(C)c(Oc2nc3ccc(Cl)cc3s2)cc1C [Compound 1.2]	≥ 70	≥ 70	efficacy [1]: ≥ 70%; efficacy [2]: ≥ 70%; efficacy (Podosphaera leucotricha): ≥ 70%; efficacy (Sphaerotheca fuliginea): ≥ 70%
CCCN(C)/C=N/c1cc(C)c(Oc2nc3ccc(Cl)cc3s2)cc1C [Compound 1.15]	–	–	efficacy [1]: ≥ 70%; efficacy (Podosphaera leucotricha): ≥ 70%; efficacy (Sphaerotheca fuliginea): ≥ 70%
CCN(C)/C=N/c1cc(C)c(Oc2nc(C)c(C(C)=NOC(C)(C)C)s2)cc1C [Compound 1.16]	≥ 70	–	–
CCN(C)/C=N/c1cc(C)c(Oc2nc(C)c(C(C)=NOC)s2)cc1C [Compound 1.19]	≥ 70	–	–
CCN(C)/C=N/c1cc(C)c(Oc2nc(C)c(C(C)=NOC(C)c3ccccc3)s2)cc1C (stereo not drawn) [Compound 1.24]	≥ 70	–	–
CCCN(C)/C=N/c1cc(C)c(Oc2nc3ccccc3s2)cc1C [Compound 1.29]	–	–	efficacy [1]: ≥ 70%; efficacy [2]: ≥ 70%
CCN(C)/C=N/c1cc(C)c(Oc2nc(C=NO)c(Cl)s2)cc1C [Compound 1.63]	≥ 70	–	efficacy [1]: ≥ 70%; efficacy (Sphaerotheca fuliginea): ≥ 70%
Cc1cc(Oc2nc(C(C)(C)C)c(Cl)s2)c(C)cc1/N=C/N1CCCCC1 [Compound 1.65]	≥ 70	–	–
Cc1cc(Oc2nc(Cl)c(-c3ccc(Cl)cc3)s2)c(C)cc1/N=C/N1CCCCC1 [Compound 1.66]	≥ 70	–	–
CCN(C)/C=N/c1cc(C)c(Oc2nc(C(C)(C)C)c(Br)s2)cc1C [Compound 1.71]	–	≥ 70	–
CCN(C)/C=N/c1cc(C)c(Oc2nc(C#N)c(Cl)s2)cc1C [Compound 1.72]	–	≥ 70	–
CCN(C)/C=N/c1cc(C)c(Oc2ncc(C(C)(C)C)s2)cc1C [Compound 1.74]	–	≥ 70	–
CCN(C)/C=N/c1cc(C)c(Oc2nc(C(C)(C)C)cs2)cc1C [Compound 1.75]	–	≥ 70	–
CCN(C)/C=N/c1ccc(Oc2nc(C(C)(C)C)ns2)cc1C [Compound 2.7]	–	≥ 70	–
CCN(C)/C=N/c1cc(C)c(Oc2nnc(-c3ccccc3Cl)s2)cc1C [Compound 3.20]	≥ 70	–	–
CCN(C)C=Nc1cc(C)c(Oc2nnc(-c3ccc(F)c(Cl)c3)s2)cc1C [Compound 3.24]	≥ 70	–	–
CCN(C)C=Nc1cc(C)c(Oc2nnc(-c3cccc(C)c3)s2)cc1C [Compound 3.31]	≥ 70	–	–
Cc1cc(Oc2nnc(-c3ccc(F)c(Cl)c3)s2)c(C)cc1N=CN(C)C(C)C [Compound 3.34]	≥ 70	–	–
Cc1cc(Oc2nnc(-c3ccc(OC(F)(F)F)cc3)s2)c(C)cc1N=CN1CCCC1 [Compound 3.35]	≥ 70	–	–
Cc1cc(Oc2nnc(-c3ccccc3Cl)s2)c(C)cc1N=CN1CCCC1 [Compound 3.39]	≥ 70	–	–
